Measurements as given in the supplement of paper PMC12595434, “Development of retinoid nuclear receptor pathway antagonists through targeting aldehyde dehydrogenase 1A3” (iScience, 2025).
The list shows a part of the results. The data scatter; read single values as rough.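 Tm was set to 64 °C where no melting was found, and many curves are irregular.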

By UniProt entry, the sequences of proteins in these tests, tags left out. Where a name states a change or a piece, a line headed by the entry shows the natural chain unless it says otherwise.
UniProt Q5RKV6, whole entry: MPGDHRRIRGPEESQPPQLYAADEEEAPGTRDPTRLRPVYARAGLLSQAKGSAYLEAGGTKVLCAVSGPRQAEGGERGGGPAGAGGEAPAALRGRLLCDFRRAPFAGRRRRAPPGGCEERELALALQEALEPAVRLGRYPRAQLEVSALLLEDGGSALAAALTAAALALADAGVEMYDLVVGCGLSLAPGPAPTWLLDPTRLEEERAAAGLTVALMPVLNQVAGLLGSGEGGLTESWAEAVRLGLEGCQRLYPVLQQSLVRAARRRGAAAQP
UniProt Q6N069: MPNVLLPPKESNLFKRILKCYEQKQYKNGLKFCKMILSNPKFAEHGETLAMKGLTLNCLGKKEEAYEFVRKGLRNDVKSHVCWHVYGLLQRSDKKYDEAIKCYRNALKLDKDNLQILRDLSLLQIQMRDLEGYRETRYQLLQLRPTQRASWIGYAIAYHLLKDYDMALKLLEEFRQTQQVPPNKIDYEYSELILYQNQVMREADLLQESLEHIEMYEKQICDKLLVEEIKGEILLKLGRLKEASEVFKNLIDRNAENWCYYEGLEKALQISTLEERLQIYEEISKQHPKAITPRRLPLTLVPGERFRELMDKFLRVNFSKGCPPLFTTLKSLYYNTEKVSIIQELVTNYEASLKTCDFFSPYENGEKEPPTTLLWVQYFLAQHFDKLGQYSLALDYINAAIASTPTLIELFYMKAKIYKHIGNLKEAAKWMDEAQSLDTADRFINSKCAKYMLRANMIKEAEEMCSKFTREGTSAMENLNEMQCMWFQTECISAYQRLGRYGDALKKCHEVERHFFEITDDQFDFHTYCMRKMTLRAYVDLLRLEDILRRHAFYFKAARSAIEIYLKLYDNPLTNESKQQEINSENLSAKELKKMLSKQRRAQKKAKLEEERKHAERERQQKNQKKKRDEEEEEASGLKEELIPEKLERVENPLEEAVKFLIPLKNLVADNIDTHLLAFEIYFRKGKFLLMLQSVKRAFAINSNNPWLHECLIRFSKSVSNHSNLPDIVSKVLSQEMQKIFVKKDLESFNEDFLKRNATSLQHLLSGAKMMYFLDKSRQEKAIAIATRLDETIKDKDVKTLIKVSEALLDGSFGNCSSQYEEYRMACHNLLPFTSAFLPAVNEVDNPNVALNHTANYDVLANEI
UniProt Q6NS38: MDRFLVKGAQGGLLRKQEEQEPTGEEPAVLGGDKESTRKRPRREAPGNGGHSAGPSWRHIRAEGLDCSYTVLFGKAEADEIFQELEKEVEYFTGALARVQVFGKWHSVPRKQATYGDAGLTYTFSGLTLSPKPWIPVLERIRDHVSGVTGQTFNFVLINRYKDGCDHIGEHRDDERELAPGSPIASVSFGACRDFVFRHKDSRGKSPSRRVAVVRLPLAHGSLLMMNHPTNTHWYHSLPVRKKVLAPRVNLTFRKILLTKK
UniProt Q5SSJ5: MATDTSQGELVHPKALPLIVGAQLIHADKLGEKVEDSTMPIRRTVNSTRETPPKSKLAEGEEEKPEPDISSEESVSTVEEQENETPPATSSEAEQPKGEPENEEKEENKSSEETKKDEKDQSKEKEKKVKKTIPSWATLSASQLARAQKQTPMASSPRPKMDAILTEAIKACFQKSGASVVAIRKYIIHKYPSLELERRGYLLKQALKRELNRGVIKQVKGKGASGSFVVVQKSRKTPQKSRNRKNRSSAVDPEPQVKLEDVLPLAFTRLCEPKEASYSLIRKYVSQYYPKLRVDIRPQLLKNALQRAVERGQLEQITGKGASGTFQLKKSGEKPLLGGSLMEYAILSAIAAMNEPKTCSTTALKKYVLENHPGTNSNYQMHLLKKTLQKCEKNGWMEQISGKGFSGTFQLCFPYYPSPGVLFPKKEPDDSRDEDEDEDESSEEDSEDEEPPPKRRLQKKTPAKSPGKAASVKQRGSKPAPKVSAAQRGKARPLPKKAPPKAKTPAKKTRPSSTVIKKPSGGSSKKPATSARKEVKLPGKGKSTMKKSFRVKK
UniProt Q68D91: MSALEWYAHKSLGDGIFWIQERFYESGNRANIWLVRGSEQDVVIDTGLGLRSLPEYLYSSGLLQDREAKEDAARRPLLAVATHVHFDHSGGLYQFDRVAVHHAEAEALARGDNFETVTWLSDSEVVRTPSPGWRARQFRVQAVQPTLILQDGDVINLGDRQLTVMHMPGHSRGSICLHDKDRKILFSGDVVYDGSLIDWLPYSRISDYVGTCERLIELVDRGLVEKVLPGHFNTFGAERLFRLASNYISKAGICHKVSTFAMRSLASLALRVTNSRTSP
UniProt Q5VT25: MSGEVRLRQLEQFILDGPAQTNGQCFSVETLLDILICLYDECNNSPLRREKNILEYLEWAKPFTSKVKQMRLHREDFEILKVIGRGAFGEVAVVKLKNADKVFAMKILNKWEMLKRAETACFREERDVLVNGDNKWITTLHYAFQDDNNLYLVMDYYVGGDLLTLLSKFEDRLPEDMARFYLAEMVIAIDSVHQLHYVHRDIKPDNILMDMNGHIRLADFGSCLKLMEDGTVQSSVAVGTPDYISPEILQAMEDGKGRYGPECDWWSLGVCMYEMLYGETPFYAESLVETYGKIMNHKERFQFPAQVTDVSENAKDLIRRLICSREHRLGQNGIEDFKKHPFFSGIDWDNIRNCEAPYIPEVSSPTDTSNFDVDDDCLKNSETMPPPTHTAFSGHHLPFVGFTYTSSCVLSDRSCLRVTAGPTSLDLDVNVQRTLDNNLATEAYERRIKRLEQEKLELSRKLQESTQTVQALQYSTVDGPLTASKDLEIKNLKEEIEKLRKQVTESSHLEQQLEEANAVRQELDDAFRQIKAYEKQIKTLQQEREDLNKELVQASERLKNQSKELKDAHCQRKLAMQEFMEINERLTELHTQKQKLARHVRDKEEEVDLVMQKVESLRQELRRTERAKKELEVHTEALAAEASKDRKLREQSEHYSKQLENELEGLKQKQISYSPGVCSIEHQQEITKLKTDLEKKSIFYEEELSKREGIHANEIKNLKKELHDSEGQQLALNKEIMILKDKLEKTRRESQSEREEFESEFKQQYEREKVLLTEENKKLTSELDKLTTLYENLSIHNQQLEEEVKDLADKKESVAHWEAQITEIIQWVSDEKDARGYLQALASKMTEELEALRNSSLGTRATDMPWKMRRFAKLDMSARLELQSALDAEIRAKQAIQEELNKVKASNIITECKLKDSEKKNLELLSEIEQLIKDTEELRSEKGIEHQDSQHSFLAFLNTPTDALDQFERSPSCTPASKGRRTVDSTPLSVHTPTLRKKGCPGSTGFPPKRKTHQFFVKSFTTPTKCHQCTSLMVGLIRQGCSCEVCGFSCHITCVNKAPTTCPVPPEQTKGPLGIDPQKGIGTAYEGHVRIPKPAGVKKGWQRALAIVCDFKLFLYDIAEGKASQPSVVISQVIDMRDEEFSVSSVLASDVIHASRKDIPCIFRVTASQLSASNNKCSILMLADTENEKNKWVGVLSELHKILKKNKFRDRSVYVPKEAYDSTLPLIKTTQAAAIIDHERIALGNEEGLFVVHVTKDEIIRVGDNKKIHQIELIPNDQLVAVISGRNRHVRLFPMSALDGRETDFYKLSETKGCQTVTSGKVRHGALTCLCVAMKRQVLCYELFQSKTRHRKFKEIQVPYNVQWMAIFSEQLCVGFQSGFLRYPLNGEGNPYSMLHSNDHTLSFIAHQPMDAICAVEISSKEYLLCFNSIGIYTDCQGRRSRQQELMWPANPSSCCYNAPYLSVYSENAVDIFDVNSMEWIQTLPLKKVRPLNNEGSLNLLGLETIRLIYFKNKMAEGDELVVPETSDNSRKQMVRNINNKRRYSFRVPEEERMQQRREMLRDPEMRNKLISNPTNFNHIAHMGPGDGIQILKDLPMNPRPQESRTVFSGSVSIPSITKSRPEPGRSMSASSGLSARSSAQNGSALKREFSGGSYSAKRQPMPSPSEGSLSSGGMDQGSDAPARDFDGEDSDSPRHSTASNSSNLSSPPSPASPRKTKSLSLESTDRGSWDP
UniProt Q5JTD0: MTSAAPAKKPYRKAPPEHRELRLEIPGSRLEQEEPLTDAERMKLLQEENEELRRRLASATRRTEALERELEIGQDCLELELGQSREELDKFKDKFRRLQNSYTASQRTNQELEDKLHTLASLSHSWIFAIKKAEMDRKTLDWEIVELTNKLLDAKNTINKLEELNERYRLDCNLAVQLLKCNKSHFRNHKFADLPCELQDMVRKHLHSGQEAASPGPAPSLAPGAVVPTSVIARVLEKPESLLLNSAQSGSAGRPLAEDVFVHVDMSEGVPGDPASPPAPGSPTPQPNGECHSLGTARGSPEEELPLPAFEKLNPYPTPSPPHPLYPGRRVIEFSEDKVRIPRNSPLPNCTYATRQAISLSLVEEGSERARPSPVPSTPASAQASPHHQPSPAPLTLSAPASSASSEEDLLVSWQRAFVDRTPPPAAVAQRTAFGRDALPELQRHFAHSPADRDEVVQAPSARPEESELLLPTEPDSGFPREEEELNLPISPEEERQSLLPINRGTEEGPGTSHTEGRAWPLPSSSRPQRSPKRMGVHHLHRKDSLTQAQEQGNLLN
UniProt Q676U5: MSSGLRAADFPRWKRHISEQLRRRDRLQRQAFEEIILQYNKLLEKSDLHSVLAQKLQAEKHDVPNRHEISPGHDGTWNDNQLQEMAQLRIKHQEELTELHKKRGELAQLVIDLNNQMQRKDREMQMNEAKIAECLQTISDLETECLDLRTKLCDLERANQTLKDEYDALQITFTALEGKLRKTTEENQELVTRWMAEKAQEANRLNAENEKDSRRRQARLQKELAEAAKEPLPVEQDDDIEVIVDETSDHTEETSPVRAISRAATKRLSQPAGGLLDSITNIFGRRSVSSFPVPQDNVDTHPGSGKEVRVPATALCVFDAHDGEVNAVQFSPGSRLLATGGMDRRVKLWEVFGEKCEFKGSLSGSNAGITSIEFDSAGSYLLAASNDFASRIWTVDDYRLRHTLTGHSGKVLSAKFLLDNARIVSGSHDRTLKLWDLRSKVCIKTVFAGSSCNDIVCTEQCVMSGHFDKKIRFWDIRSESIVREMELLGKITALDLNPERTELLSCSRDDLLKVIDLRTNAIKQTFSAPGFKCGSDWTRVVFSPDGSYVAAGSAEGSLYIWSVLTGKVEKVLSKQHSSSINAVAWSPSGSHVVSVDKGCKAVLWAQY
UniProt Q6P587: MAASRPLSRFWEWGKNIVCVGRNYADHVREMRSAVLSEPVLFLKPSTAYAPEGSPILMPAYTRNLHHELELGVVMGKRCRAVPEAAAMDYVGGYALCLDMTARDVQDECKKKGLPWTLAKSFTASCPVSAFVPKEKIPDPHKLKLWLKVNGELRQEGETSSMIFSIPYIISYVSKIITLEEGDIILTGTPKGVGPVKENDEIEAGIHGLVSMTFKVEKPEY
UniProt Q5EBL4: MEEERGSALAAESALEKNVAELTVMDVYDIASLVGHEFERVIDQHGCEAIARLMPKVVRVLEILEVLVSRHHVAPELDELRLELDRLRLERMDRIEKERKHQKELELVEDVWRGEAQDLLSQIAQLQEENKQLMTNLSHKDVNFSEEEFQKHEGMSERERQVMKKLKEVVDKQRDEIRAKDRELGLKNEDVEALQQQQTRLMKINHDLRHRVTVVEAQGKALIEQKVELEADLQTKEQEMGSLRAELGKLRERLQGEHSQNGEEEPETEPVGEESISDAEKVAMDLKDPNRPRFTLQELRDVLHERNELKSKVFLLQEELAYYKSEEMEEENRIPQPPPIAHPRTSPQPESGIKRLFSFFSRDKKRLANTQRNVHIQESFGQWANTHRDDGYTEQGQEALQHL

Compound: CCc1cnccc1C(=O)Nc1cc2c(cc1F)NC(=O)CC2
Assay: melting temperature shift (DMSO Tm minus MBE1-treated Tm) in cellular thermal proteome profiling; higher = less thermal stabilization by MBE1 (negative = stabilized by MBE1)
Details: A375

Target	melting temperature shift (MBE1 concentration: 100 nM) [°C]	melting temperature shift (MBE1 concentration: 1 uM) [°C]
UniProt Q68CZ1	-0.269	-0.556
RBM26 (UniProt Q5T8P6)	-0.295	-0.218
EXOSC6 (UniProt Q5RKV6)	-3.77	0.472
UniProt Q6P444	0.0855	-1.28
DNAJC21 (UniProt Q5F1R6)	-6.32	-2.64
CEP350 (UniProt Q5VT06)	0.733	2.53
TTC19 (UniProt Q6DKK2)	-1.04	-0.382
TAF2 (UniProt Q6P1X5)	-0.495	-0.732
NAA16 (UniProt Q6N069)	0.0611	-0.354
UniProt Q5TF21	-0.385	-2.53
UniProt Q6GMV3	-2.7	0.0435
DIEXF (UniProt Q68CQ4)	-0.16	-0.147
TMEM63B (UniProt Q5T3F8)	0.928	1.22
UniProt Q6P1R3	0.892	0.429
RNF219 (UniProt Q5W0B1)	-2.25	0.428
HAUS3 (UniProt Q68CZ6)	-0.612	-0.428
WWC2 (UniProt Q6AWC2)	-2.61	-0.214
COQ5 (UniProt Q5HYK3)	-0.824	-0.159
ZMYM1 (UniProt Q5SVZ6)	-0.0944	-2.15
JMJD6 (UniProt Q6NYC1)	-0.79	-0.729
ANKRD54 (UniProt Q6NXT1)	-1.79	0.241
ALKBH2 (UniProt Q6NS38)	-0.464	-0.0733
UniProt Q5T3J3	-2.31	0.669
PSMG4 (UniProt Q5JS54)	0.0118	1.17

Target	melting temperature shift (MBE1 concentration: 100 nM) [°C]	melting temperature shift (MBE1 concentration: 1 uM) [°C]
CRYBG3 (UniProt Q68DQ2)	-0.616	-0.701
SPRYD7 (UniProt Q5W111)	0.215	-0.188
HP1BP3 (UniProt Q5SSJ5)	0.867	0.0183
TATDN1 (UniProt Q6P1N9)	-1.06	-1.91
WDR44 (UniProt Q5JSH3)	-0.635	0.508
HERC4 (UniProt Q5GLZ8)	0.421	0.11
STRIP1 (UniProt Q5VSL9)	0.165	1.15
UniProt Q5R372	0.055	0.122
KANK2 (UniProt Q63ZY3)	-0.752	0.0128
MBLAC2 (UniProt Q68D91)	-0.455	0.439
UniProt Q659C4	-0.0122	0.891
COA6 (UniProt Q5JTJ3)	1.17	-0.0916
UniProt Q6NSZ9	0.349	0.318
TTI2 (UniProt Q6NXR4)	0.354	-0.0244
UniProt Q5HYJ3	-0.0794	-0.116
SLC25A24 (UniProt Q6NUK1)	-1.03	-1.31
UniProt Q6P582	2.25	-2.99
UniProt Q6JQN1	0	-0.0174
UniProt Q6P3S6	-2.05	0.288
CDC42BPA (UniProt Q5VT25)	1.03	0.336
RPL22L1 (UniProt Q6P5R6)	0.14	0.36
UniProt Q6IPU0	-0.999	-0.0805
PPP4R3B (UniProt Q5MIZ7)	-0.165	-0.118
SPECC1 (UniProt Q5M775)	0.94	-0.885

Target	melting temperature shift (MBE1 concentration: 100 nM) [°C]	melting temperature shift (MBE1 concentration: 1 uM) [°C]
UniProt Q68D10	-2.08	0.389
UniProt Q5THK1	-0.421	1.81
TJAP1 (UniProt Q5JTD0)	0.183	1.11
ZDHHC20 (UniProt Q5W0Z9)	-2.77	-2.97
UniProt Q6NW34	-0.899	-0.755
GORAB (UniProt Q5T7V8)	-0.214	-1.37
UniProt Q5VYK3	0.0612	-0.0141
CWF19L1 (UniProt Q69YN2)	0.605	-0.324
PITRM1 (UniProt Q5JRX3)	1.2	-0.0244
ATG16L1 (UniProt Q676U5)	-0.912	-0.00671
FAHD1 (UniProt Q6P587)	-0.721	-0.0709
ARHGAP21 (UniProt Q5T5U3)	-0.696	-1.44
RILPL1 (UniProt Q5EBL4)	-0.616	-1.3
UniProt Q68DA7	-1.15	-0.327
MRM1 (UniProt Q6IN84)	-0.997	0.0201
EMC10 (UniProt Q5UCC4)	-1.02	0.458
PRPF8 (UniProt Q6P2Q9)	0.324	0.134
UniProt Q5T011	1.35	1.25
FAM117B (UniProt Q6P1L5)	1.61	-0.765
RETSAT (UniProt Q6NUM9)	0.557	1.03
SDE2 (UniProt Q6IQ49)	-0.868	0.635
GPATCH4 (UniProt Q5T3I0)	-1.2	-0.0384

Some of the entries so far, with bars between the fields:
Target | melting temperature shift (MBE1 concentration: 100 nM) [°C] | melting temperature shift (MBE1 concentration: 1 uM) [°C]
SPECC1 (UniProt Q5M775) | 0.94 | -0.885
UniProt Q68D10 | -2.08 | 0.389
UniProt Q5THK1 | -0.421 | 1.81
TJAP1 (UniProt Q5JTD0) | 0.183 | 1.11
ZDHHC20 (UniProt Q5W0Z9) | -2.77 | -2.97
UniProt Q6NW34 | -0.899 | -0.755
GORAB (UniProt Q5T7V8) | -0.214 | -1.37
CWF19L1 (UniProt Q69YN2) | 0.605 | -0.324
PITRM1 (UniProt Q5JRX3) | 1.2 | -0.0244
ATG16L1 (UniProt Q676U5) | -0.912 | -0.00671
FAHD1 (UniProt Q6P587) | -0.721 | -0.0709
ARHGAP21 (UniProt Q5T5U3) | -0.696 | -1.44
RILPL1 (UniProt Q5EBL4) | -0.616 | -1.3
MRM1 (UniProt Q6IN84) | -0.997 | 0.0201
EMC10 (UniProt Q5UCC4) | -1.02 | 0.458
PRPF8 (UniProt Q6P2Q9) | 0.324 | 0.134
UniProt Q5T011 | 1.35 | 1.25
RETSAT (UniProt Q6NUM9) | 0.557 | 1.03
SDE2 (UniProt Q6IQ49) | -0.868 | 0.635
GPATCH4 (UniProt Q5T3I0) | -1.2 | -0.0384
